Data on 5 molecules can be found in article PMC6339880.

Chains of the proteins cited; added tags and fusions are not shown. Lines headed by an entry give the natural chain unless they say otherwise; changes in a name come on top.
UniProt P0AAI3: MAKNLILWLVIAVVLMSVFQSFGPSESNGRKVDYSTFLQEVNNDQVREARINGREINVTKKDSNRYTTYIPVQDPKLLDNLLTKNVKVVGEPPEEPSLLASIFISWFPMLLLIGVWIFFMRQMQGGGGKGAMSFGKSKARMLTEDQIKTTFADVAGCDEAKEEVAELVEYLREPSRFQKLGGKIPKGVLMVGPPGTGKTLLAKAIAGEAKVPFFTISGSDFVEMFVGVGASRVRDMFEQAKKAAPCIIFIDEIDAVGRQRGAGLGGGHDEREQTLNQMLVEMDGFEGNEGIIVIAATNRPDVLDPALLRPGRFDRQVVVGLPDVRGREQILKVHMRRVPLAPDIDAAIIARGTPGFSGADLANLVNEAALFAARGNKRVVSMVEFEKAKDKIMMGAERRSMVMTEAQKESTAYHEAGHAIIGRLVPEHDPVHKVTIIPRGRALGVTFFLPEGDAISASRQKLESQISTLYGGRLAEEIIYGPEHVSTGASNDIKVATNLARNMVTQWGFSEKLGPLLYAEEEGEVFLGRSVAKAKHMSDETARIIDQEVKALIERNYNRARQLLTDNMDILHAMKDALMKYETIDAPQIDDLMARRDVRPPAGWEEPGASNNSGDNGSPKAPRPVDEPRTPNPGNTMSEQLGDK

First the molecules themselves.
T1: Strep-LpxC (E. coli) (UniProt P0A725)
T1 sequence: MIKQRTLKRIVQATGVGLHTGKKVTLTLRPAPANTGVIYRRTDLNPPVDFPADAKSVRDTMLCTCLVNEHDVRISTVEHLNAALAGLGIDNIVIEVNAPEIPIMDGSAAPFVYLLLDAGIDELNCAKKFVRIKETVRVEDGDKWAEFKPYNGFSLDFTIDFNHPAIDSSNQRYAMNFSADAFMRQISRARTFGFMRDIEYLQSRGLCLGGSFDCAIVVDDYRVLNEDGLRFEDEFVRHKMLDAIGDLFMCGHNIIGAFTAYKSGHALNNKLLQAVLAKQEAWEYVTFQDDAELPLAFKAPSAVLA

B1: DksA (protein, UniProt P0ABS1 1-151)
chain: MQEGQNRKTSSLSILAIAGVEPYQEKPGEEYMNEAQLAHFRRILEAWRNQLRDEVDRTVTHMQDEAANFPDPVDRAAQEEEFSLELRNRDRERKLIKKIEKTLKKVEDEDFGYCESCGVEIGIRRLEARPTADLCIDCKTLAEIREKQMAG
B2: EptC (enzyme, UniProt P0CB39 1-577)
chain: MHSTEVQAKPLFSWKALGWALLYFWFFSTLLQAIIYISGYSGTNGIRDSLLFSSLWLIPVFLFPKRIKIIAAVIGVVLWAASLAALCYYVIYGQEFSQSVLFVMFETNTNEASEYLSQYFSLKIVLIALAYTAVAVLLWTRLRPVYIPKPWRYVVSFALLYGLILHPIAMNTFIKNKPFEKTLDNLASRMEPAAPWQFLTGYYQYRQQLNSLTKLLNENNALPPLANFKDESGNEPRTLVLVIGESTQRGRMSLYGYPRETTPELDALHKTDPNLTVFNNVVTSRPYTIEILQQALTFANEKNPDLYLTQPSLMNMMKQAGYKTFWITNQQTMTARNTMLTVFSRQTDKQYYMNQQRTQSAREYDTNVLKPFQEVLNDPAPKKLIIVHLLGTHIKYKYRYPENQGKFDGNTDHVPPGLNAEELESYNDYDNANLYNDHVVASLIKDFKAANPNGFLVYFSDHGEEVYDTPPHKTQGRNEDNPTRHMYTIPFLLWTSEKWQATHPRDFSQDVDRKYSLAELIHTWSDLAGLSYDGYDPTRSVVNPQFKETTRWIGNPYKKNALIDYDTLPYGDQVGNQ
B3: ArnA (enzyme, UniProt P77398 1-660)
chain: MKTVVFAYHDMGCLGIEALLAAGYEISAIFTHTDNPGEKAFYGSVARLAAERGIPVYAPDNVNHPLWVERIAQLSPDVIFSFYYRHLIYDEILQLAPAGAFNLHGSLLPKYRGRAPLNWVLVNGETETGVTLHRMVKRADAGAIVAQLRIAIAPDDIAITLHHKLCHAARQLLEQTLPAIKHGNILEIAQRENEATCFGRRTPDDSFLEWHKPASVLHNMVRAVADPWPGAFSYVGNQKFTVWSSRVHPHASKAQPGSVISVAPLLIACGDGALEIVTGQAGDGITMQGSQLAQTLGLVQGSRLNSQPACTARRRTRVLILGVNGFIGNHLTERLLREDHYEVYGLDIGSDAISRFLNHPHFHFVEGDISIHSEWIEYHVKKCDVVLPLVAIATPIEYTRNPLRVFELDFEENLRIIRYCVKYRKRIIFPSTSEVYGMCSDKYFDEDHSNLIVGPVNKPRWIYSVSKQLLDRVIWAYGEKEGLQFTLFRPFNWMGPRLDNLNAARIGSSRAITQLILNLVEGSPIKLIDGGKQKRCFTDIRDGIEALYRIIENAGNRCDGEIINIGNPENEASIEELGEMLLASFEKHPLRHHFPPFAGFRVVESSSYYGKGYQDVEHRKPSIRNAHRCLDWEPKIDMQETIDETLDFFLRTVDLTDKPS
B4: HldE (enzyme, UniProt P76658 1-477)
chain: MKVTLPEFERAGVMVVGDVMLDRYWYGPTSRISPEAPVPVVKVNTIEERPGGAANVAMNIASLGANARLVGLTGIDDAARALSKSLADVNVKCDFVSVPTHPTITKLRVLSRNQQLIRLDFEEGFEGVDPQPLHERINQALSSIGALVLSDYAKGALASVQQMIQLARKAGVPVLIDPKGTDFERYRGATLLTPNLSEFEAVVGKCKTEEEIVERGMKLIADYELSALLVTRSEQGMSLLQPGKAPLHMPTQAQEVYDVTGAGDTVIGVLAATLAAGNSLEEACFFANAAAGVVVGKLGTSTVSPIELENAVRGRADTGFGVMTEEELKLAVAAARKRGEKVVMTNGVFDILHAGHVSYLANARKLGDRLIVAVNSDASTKRLKGDSRPVNPLEQRMIVLGALEAVDWVVSFEEDTPQRLIAGILPDLLVKGGDYKPEEIAGSKEVWANGGEVLVLNFEDGCSTTNIIKKIQQDKKG
B5: LapB, P0AB58 1-389 (protein)
chain: MLELLFLLLPVAAAYGWYMGRRSAQQNKQDEANRLSRDYVAGVNFLLSNQQDKAVDLFLDMLKEDTGTVEAHLTLGNLFRSRGEVDRAIRIHQTLMESASLTYEQRLLAIQQLGRDYMAAGLYDRAEDMFNQLTDETDFRIGALQQLLQIYQATSEWQKAIDVAERLVKLGKDKQRVEIAHFYCELALQHMASDDLDRAMTLLKKGAAADKNSARVSIMMGRVFMAKGEYAKAVESLQRVISQDRELVSETLEMLQTCYQQLGKTAEWAEFLQRAVEENTGADAELMLADIIEARDGSEAAQVYITRQLQRHPTMRVFHKLMDYHLNEAEEGRAKESLMVLRDMVGEKVRSKPRYRCQKCGFTAYTLYWHCPSCRAWSTIKPIRGLDGL

No constants are given. Whether binding was seen depends on the method and setting. Binding seen in cells or lysates may run through a third protein. A yes stands for co-enrichment or nearness to the bait. Other partners may have been found. For part of these data: No binding means not detected with the bait.

The target in the first assay is His6-MBP-FtsH (E. coli) (UniProt P0AAI3). Description: affinity purification with mass spectrometry; His6-MBP-FtsH overproduced in E. coli BL21 Δarg/Δlys grown at 30°C (slow), 37°C (medium) or 40°C (fast growth); Ni-NTA affinity purification from the lysate; co-purified proteins identified by LC-MS/MS with a super-SILAC standard; enriched >2-fold over the His6-MBP empty-vector control, p<0.05, or 'FtsH only'.
Settings: not given
For the molecule B1, the binding result is listed as “binds”. For B2, the binding entry is listed as “binds”.

On to B3, for which the binding entry is reported as “binds”. For B4, the binding result is “binds”.

For the next assay, the target named is His6-MBP-FtsH (E. coli), P0AAI3. Described as above. The settings on record: remark: other sources report otherwise.
Turning to B5, the binding entry was “no binding”.

For a further assay, the target named is T1, Strep-LpxC (E. coli). Description: affinity purification with mass spectrometry; Strep-LpxC overproduced in E. coli BL21 Δarg/Δlys grown at 30°C (slow), 37°C (medium) or 40°C (fast growth); Strep-tactin affinity purification from the lysate; co-purified proteins identified by LC-MS/MS with a super-SILAC standard; enriched >2-fold over the Strep-tag empty-vector control, p<0.05, or 'LpxC only'.
Settings: not given
Regarding B1, the binding entry is “binds”. Consider B2, for which the binding entry was “binds”. Take B3: the binding result is “binds”. On the same count and under the same terms, in the case of B4 it was “binds”.
